Earlier results as cited in patent US6586413B2, “Methods and compositions for reducing ischemic injury of the heart by administering adenosine receptor agonists and antagonists” (The United States of America as represented by the …, priority 1999, dated 2003).
The structures given here were assigned with low confidence; some may be wrong.

Target: A3 receptor
Conditions: read-out: A3; Table II; cited from earlier work

CCNC(=O)[C@H]1O[C@@H](n2cnc3c(NCc4ccc([N+](=O)[O-])cc4)ncnc32)[C@H](O)[C@@H]1O
Ki: 9 nM
